# Source: the supplement of paper PMC4635364
# Counter-ions that a name gives are not always drawn. This is one part of the list. This data set is noisy: repeats of one test often differ as much as different tests do.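 Human fetal ventral-midbrain neural progenitor line ReNCell VM, differentiated without mitogens. Images stained for doublecortin (early neurons) or tyrosine hydroxylase (dopaminergic neurons) were scored by blinded raters against untreated wells (0 = no change). Repeats and both raters were averaged, and compounds averaging 2 or higher were picked as hits for retesting.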
# Tested on: ReNCell VM
# Assay: dopaminergic neuron differentiation score (TH+ cell fraction vs untreated, manual image score) (score (0 to 3)); higher = more TH+ dopaminergic neuron differentiation
# Details: library: Prestwick; 2 uM; 4 weeks; BDNF 10 ng/ml + GDNF 10 ng/ml
row,SMILES,dopaminergic neuron differentiation score
1,CC(C)N(CCC(C(N)=O)(c1ccccc1)c1ccccn1)C(C)C (centres undefined) [Disopyramide],inactive: 0
2,NCCC(O)C(=O)NC1CC(N)C(OC2OC(CN)C(O)[C@H](O)[C@@H]2N)[C@H](OC2O[C@H](CO)[C@@H](O)[C@@H]2O)[C@@H]1O (some centres undefined) [Butirosin disulfate salt],inactive: 0
3,CCOC(=O)c1cncn1[C@H](C)c1ccccc1 [Etomidate],inactive: 0
4,CC[C@@H](CO)NC(=O)[C@@H]1C=C2c3cccc4[nH]cc(c34)C[C@H]2N(C)C1 [Methylergometrine maleate],inactive: 0
5,CC[C@@]1([C@@H]2O[C@@H]([C@H]3O[C@@](O)(CO)[C@H](C)C[C@@H]3C)C[C@@H]2C)CC[C@H]([C@]2(C)CC[C@]3(C[C@H](O)[C@@H](C)[C@@H]([C@@H](C)[C@@H](OC)[C@H](C)C(=O)O)O3)O2)O1 [Monensin sodium salt],inactive: 0
6,NCCc1c[nH]c2ccc(O)cc12 [Serotonin hydrochloride],inactive: 1
7,COc1ccc(OC)c(C(O)C(C)N)c1 (centres undefined) [Methoxamine hydrochloride],inactive: 0
8,COc1ccc2c(c1)[C@]13CCCC[C@@H]1[C@H](C2)N(C)CC3 [Dextromethorphan hydrobromide monohydrate],inactive: 0
9,"CNCC(O)c1ccc(O)cc1 (racemic) [(+,-)-Synephrine]",inactive: 0
10,CN1[C@@H]2CC[C@H]1C[C@@H](OC(=O)C(CO)c1ccccc1)C2 (some centres undefined) [Atropine sulfate monohydrate],inactive: 0
11,CC(C)c1cccc(C(C)C)c1O [Propofol],inactive: 0
12,O=c1c2ccccc2[se]n1-c1ccccc1 [Ebselen],inactive: 0
13,C[C@]12CC[C@H](O)C[C@H]1CC[C@@H]1[C@@H]2C[C@@H](O)[C@]2(C)[C@@H](C3=CC(=O)OC3)CC[C@]12O [Digoxigenin],inactive: 0
14,C[C@]12CC[C@H](O)C[C@H]1CC[C@@H]1[C@@H]2CC[C@]2(C)[C@@H](C3=CC(=O)OC3)CC[C@]12O [Digitoxigenin],inactive: 0
15,NCCCNCCSP(=O)(O)O [Amifostine],inactive: 0
16,"CC[C@@]1(O)C(=O)OCc2c1cc1n(c2=O)Cc2cc3ccccc3nc2-1 [Camptothecine (S,+)]",inactive: 0
17,CO[C@]12C[C@@H](COC(=O)c3cncc(Br)c3)CN(C)[C@@H]1Cc1cn(C)c3cccc2c13 [Nicergoline],inactive: 0
18,S=C(NC1CCCCC1)N1CCC(c2cnc[nH]2)CC1 [Thioperamide maleate],inactive: 0
19,CCCC(C)(COC(N)=O)COC(=O)NC(C)C (centres undefined) [Carisoprodol],inactive: 0

# Same assay, conditions: library: Tocriscreen; 2 uM; 4 weeks; BDNF 10 ng/ml + GDNF 10 ng/ml
row,SMILES,dopaminergic neuron differentiation score
1,CC1=NN=C(c2ccc(N)cc2)c2cc3c(cc2C1)OCO3,inactive: 0
2,CC(=O)NCCc1c[nH]c2ccccc12 [N-Acetyltryptamine],inactive: 0
3,N=C(N)NN [Aminoguanidine hydrochloride],inactive: 0
4,C/C(O)=C(\C#N)C(=O)Nc1cc(Br)ccc1Br,inactive: 0
5,CCOC(=O)c1cncn1[C@H](C)c1ccccc1 [Etomidate],inactive: 0
6,c1ccc2nc(N3CCNCC3)ccc2c1 [Quipazine dimaleate],inactive: 0
7,CC[C@@H](CO)NC(=O)[C@@H]1C=C2c3cccc4[nH]cc(c34)C[C@H]2N(C)C1 [Methylergometrine maleate],inactive: 0
8,O=C(Cc1ccc(Cl)c(Cl)c1)N1CCCCC1CN1CCCC1 (centres undefined),inactive: 0
9,Oc1ccc2c3c1O[C@H]1c4[nH]c5c(c4C[C@@]4(O)[C@@H](C2)N(CC2CC2)CC[C@]314)C[C@@]1(O)[C@H]2Cc3ccc(O)c4c3[C@@]1(CCN2CC1CC1)[C@H]5O4 [nor-Binaltorphimine dihydrochloride],inactive: 0
10,C[C@@H]1O[C@@H](O[C@H]2C[C@@H](O)[C@]3(CO)[C@H]4[C@H](O)C[C@]5(C)[C@@H](C6=CC(=O)OC6)CC[C@]5(O)[C@@H]4CC[C@]3(O)C2)[C@H](O)[C@H](O)[C@H]1O [Ouabain],inactive: 0
11,NCCc1c[nH]c2ccc(C(N)=O)cc12 [5-Carboxamidotryptamine maleate],inactive: 0
12,O=c1[nH]oc2c1CCNC2 [THIP hydrochloride],inactive: 0
13,O=C(CCCN1CCC2(CC1)C(=O)NCN2c1ccccc1)c1ccc(F)cc1 [Spiperone hydrochloride],inactive: 0
14,CCC1(C2=NCCN2)Cc2ccccc2O1 (centres undefined) [Efaroxan hydrochloride],inactive: 0
15,CC(=O)[C@H]1CC[C@H]2[C@@H]3CC[C@H]4C[C@](C)(O)CC[C@]4(C)[C@H]3CC[C@]12C [Ganaxolone],inactive: 0
16,O=C(O)c1nn(Cc2ccc(Cl)cc2Cl)c2ccccc12 [Lonidamine],inactive: 0
17,CO[C@]12C[C@@H](COC(=O)c3cncc(Br)c3)CN(C)[C@@H]1Cc1cn(C)c3cccc2c13 [Nicergoline],inactive: 0
18,Nc1ccncc1 [4-Aminopyridine],inactive: 0
19,O=C(N[C@H]1CN2CCC1CC2)c1ccc(Cl)cc1,inactive: 0
20,COc1ccc(-n2nc(C(F)(F)F)cc2-c2ccc(Cl)cc2)cc1,inactive: 0
